Measurements reported in PubChem BioAssay AID1224830 (NIAID, 2016)
The deposit covers about 18,000 reagents; this is a random part of them. In the full data, about 2,900 (16%) are marked active. 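Calls are made per well; low scores hint the gene aids the LPS response, high scores that it dampens it.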 Unmarked entries are inactive. Repeated entries: four replicate wells of each siRNA pool.

Purpose: 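Host factors that control LPS-induced TNF expression in human macrophages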 (primary screen)
Cell system: human THP-1 monocytic leukaemia cells, TNF dual-luciferase reporter clone, PMA-differentiated to macrophage-like cells
Reagent: siRNA pool against human genes, 50 nM
Time to read-out: LPS for 4 h, given about 3 days after siRNA transfection
Treatment: bacterial LPS (TLR4 ligand), 10 ng/ml
Read-out: 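Ratio of firefly to renilla light, scaled to the plate median and expressed as a robust z-score per replicate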
Reading the numbers: TNF reporter robust z-score: higher = stronger TNF reporter response to LPS
Hit rule: 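a well is active when its z-score exceeds 2.8 or falls below -1.5; control wells carry no call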

KRT5 (keratin 5): TNF reporter robust z-score = -0.41
KRT5 (keratin 5): TNF reporter robust z-score = -0.17
KRT5 (keratin 5): TNF reporter robust z-score = -0.28
KRT5 (keratin 5): TNF reporter robust z-score = -0.72
SCN8A (sodium voltage-gated channel alpha subunit 8): TNF reporter robust z-score = -0.73
SCN8A (sodium voltage-gated channel alpha subunit 8): TNF reporter robust z-score = -0.55
SCN8A (sodium voltage-gated channel alpha subunit 8): TNF reporter robust z-score = 1.03
SCN8A (sodium voltage-gated channel alpha subunit 8): TNF reporter robust z-score = 1.21
SLC7A5: TNF reporter robust z-score = -0.71
SLC7A5: TNF reporter robust z-score = -1.15
SLC7A5: TNF reporter robust z-score = -1.29
SLC7A5: TNF reporter robust z-score = -1.16
CEACAM7 (CEA cell adhesion molecule 7): TNF reporter robust z-score = 1.42
CEACAM7 (CEA cell adhesion molecule 7): TNF reporter robust z-score = 0.54
CEACAM7 (CEA cell adhesion molecule 7): TNF reporter robust z-score = 0.11
CEACAM7 (CEA cell adhesion molecule 7): TNF reporter robust z-score = 0.86
MRPL48 (mitochondrial ribosomal protein L48): TNF reporter robust z-score = 0.08
MRPL48 (mitochondrial ribosomal protein L48): TNF reporter robust z-score = -0.16
MRPL48 (mitochondrial ribosomal protein L48): TNF reporter robust z-score = 0.67
MRPL48 (mitochondrial ribosomal protein L48): TNF reporter robust z-score = 1.2
MT1A (metallothionein 1A): TNF reporter robust z-score = -1.89 (active)
MT1A (metallothionein 1A): TNF reporter robust z-score = -0.94
MT1A (metallothionein 1A): TNF reporter robust z-score = -0.82
MT1A (metallothionein 1A): TNF reporter robust z-score = -0.87
KNTC1 (kinetochore associated 1): TNF reporter robust z-score = -1.28
KNTC1 (kinetochore associated 1): TNF reporter robust z-score = 0.16
KNTC1 (kinetochore associated 1): TNF reporter robust z-score = 0.62
KNTC1 (kinetochore associated 1): TNF reporter robust z-score = 0.88
OR5D13 (olfactory receptor family 5 subfamily D member 13): TNF reporter robust z-score = -0.36
OR5D13 (olfactory receptor family 5 subfamily D member 13): TNF reporter robust z-score = 0.12
OR5D13 (olfactory receptor family 5 subfamily D member 13): TNF reporter robust z-score = 0.66
SPCS3 (signal peptidase complex subunit 3): TNF reporter robust z-score = 0.71
SPCS3 (signal peptidase complex subunit 3): TNF reporter robust z-score = 0.61
SPCS3 (signal peptidase complex subunit 3): TNF reporter robust z-score = 1.37
SPCS3 (signal peptidase complex subunit 3): TNF reporter robust z-score = 2.78
OR1J4 (olfactory receptor family 1 subfamily J member 4): TNF reporter robust z-score = 2.34
OR1J4 (olfactory receptor family 1 subfamily J member 4): TNF reporter robust z-score = 1.76
OR1J4 (olfactory receptor family 1 subfamily J member 4): TNF reporter robust z-score = 0.95
OR1J4 (olfactory receptor family 1 subfamily J member 4): TNF reporter robust z-score = -0.08
CCN2 (cellular communication network factor 2): TNF reporter robust z-score = -2.07 (active)
CCN2 (cellular communication network factor 2): TNF reporter robust z-score = 0.75
CCN2 (cellular communication network factor 2): TNF reporter robust z-score = -1.46
CCN2 (cellular communication network factor 2): TNF reporter robust z-score = -0.97
LAMTOR1 (late endosomal/lysosomal adaptor, MAPK and MTOR activator 1): TNF reporter robust z-score = -0.71
LAMTOR1 (late endosomal/lysosomal adaptor, MAPK and MTOR activator 1): TNF reporter robust z-score = 0.69
LAMTOR1 (late endosomal/lysosomal adaptor, MAPK and MTOR activator 1): TNF reporter robust z-score = 1.19
LAMTOR1 (late endosomal/lysosomal adaptor, MAPK and MTOR activator 1): TNF reporter robust z-score = 1.35
